From PubChem BioAssay record AID1053133 (Broad Institute, 2014).

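Vaccinia-infected cells with a two-color viral stage reporter; Venus fluorescence read on a plate reader; the cell line is not named here; timing not stated here.
The test concentration is not given here.
Percent change in Venus reporter signal; lower (more negative) values mean stronger inhibition of that viral stage.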

Values are in %.
The controls that fix the scale are not given here.
Common to all entries: measured here: Venus reporter, other viral stage.
This is a side read-out of the assay, for part of the compounds, not drawn at random.

Compound | activity change (Venus) (%)
C[C@H]1CN([C@@H](C)CO)C(=O)c2cc(NS(=O)(=O)c3ccc(Cl)cc3)ccc2O[C@@H]1CN(C)Cc1ccc(Oc2ccccc2)cc1 | -31.43
C[C@@H]1CCCCO[C@H](CN(C)Cc2ccc(C(F)(F)F)cc2)[C@H](C)CN([C@H](C)CO)C(=O)c2cc(NS(=O)(=O)c3ccccc3)ccc2O1 | -44.5
C[C@@H]1CCCCO[C@H](CN(C)C(=O)c2ccccc2)[C@H](C)CN([C@@H](C)CO)C(=O)c2cc(NS(=O)(=O)c3ccc(Cl)cc3)ccc2O1 | -50.24
COc1ccccc1NC(=O)N1CCCCN2[C@@H](CO)[C@H](c3ccc(-c4cccc(C#N)c4)cc3)[C@@H]2C1 | -54.63
Cc1noc(C)c1S(=O)(=O)N(C)C[C@H]1OCc2ccccc2-c2c(n(C)c3ccccc23)C(=O)N([C@H](C)CO)C[C@H]1C | -34.58
CCNC(=O)c1cc2c(c(-c3cccc(-c4ccncc4)c3)n1)[C@H](CCO)N(S(=O)(=O)CC)C2 | -49.55
COc1ccc(S(=O)(=O)Nc2ccc3c(c2)C(=O)N([C@@H](C)CO)C[C@H](C)[C@H](CN(C)C(=O)NC2CCCCC2)OCCCC[C@H](C)O3)cc1 | -31.97
COc1ccc(NC(=O)Nc2ccc3c(c2)C(=O)N([C@H](C)CO)C[C@@H](C)[C@H](CN(C)Cc2ccc(C(F)(F)F)cc2)O3)cc1 | -43.98
N#Cc1ccc(-c2ccc(C3[C@@H]4CN(Cc5ccccc5F)C[C@H]3N4)cc2)cc1 (stereo partly drawn) | -89.57
C[C@H]1CN([C@@H](C)CO)S(=O)(=O)c2ccc(C3=CCCCC3)cc2O[C@@H]1CN(C)C(=O)c1ccc(F)cc1 | -65.01
C[C@@H]1CN([C@@H](C)CO)C(=O)c2cc(NC(=O)CCN3CCOCC3)ccc2O[C@@H]1CN(C)Cc1ccc(-c2ccccc2)cc1 | -40.85
Cc1ccc(S(=O)(=O)N(C)C[C@H]2OCCCC[C@@H](C)Oc3ccc(NC(=O)CCC(F)(F)F)cc3C(=O)N([C@H](C)CO)C[C@H]2C)cc1 | -31.87
CC(=O)N(C)C[C@H]1Oc2cc(C#Cc3ccc(F)cc3)ccc2S(=O)(=O)N([C@@H](C)CO)C[C@@H]1C | -32.69
C[C@H](CO)N1C[C@H](C)[C@H](CN(C)CC2CCCCC2)OCCCC[C@H](C)Oc2ccc(NC(=O)C3CCCCC3)cc2C1=O | -68.67
CCC(=O)N(C)C[C@@H]1Oc2cc(C#CCC3CCCC3)ccc2S(=O)(=O)N([C@@H](C)CO)C[C@H]1C | -56.05
COc1ccc(CN(C)C[C@H]2OCCCC[C@@H](C)Oc3ccc(NC(=O)NC4CCCCC4)cc3C(=O)N([C@@H](C)CO)C[C@H]2C)cc1 | -67.27
COc1ccc(S(=O)(=O)N(C)C[C@@H]2OCCCC[C@H](C)Oc3ccc(NS(=O)(=O)c4c(C)noc4C)cc3C(=O)N([C@H](C)CO)C[C@H]2C)cc1 | -30.13
C[C@@H]1CN([C@H](C)CO)C(=O)c2cc(/C=C/c3ccccc3)cnc2O[C@H]1CN(C)C(=O)c1cccc(F)c1 | -33.98
Cc1cccc(-c2ccc(C3[C@@H]4CN(C(=O)C5CCCC5)C[C@H]3N4)cc2)c1 (stereo partly drawn) | -90.86
COc1ccc2c3c(n(C)c2c1)[C@H](CO)N(C(=O)c1ccc(F)cc1)CC31CCN(C(=O)c2ccc(F)cc2)CC1 | -32.15
O=C(Nc1ccc(F)cc1)N1CC(=O)N2[C@@H](CO)[C@H](c3ccc(-c4ccccc4)cc3)[C@@H]2C1 | -28.86
C[C@H]1CN([C@@H](C)CO)C(=O)c2cc(/C=C/c3ccccc3)cnc2O[C@@H]1CN(C)S(=O)(=O)c1ccccc1F | -31.62
COc1ccc(S(=O)(=O)Nc2ccc3c(c2)C(=O)N([C@@H](C)CO)C[C@@H](C)[C@H](CN(C)Cc2ccc(Cl)c(Cl)c2)O3)cc1 | -59.14
COc1ccc(CN(C)C[C@@H]2OCCCC[C@@H](C)Oc3ccc(NC(=O)NC4CCCCC4)cc3C(=O)N([C@@H](C)CO)C[C@H]2C)cc1 | -37.71
Cc1ccc(S(=O)(=O)Nc2ccc3c(c2)C(=O)N([C@H](C)CO)C[C@H](C)[C@@H](CN(C)S(=O)(=O)c2ccc(F)cc2)OCCCC[C@H](C)O3)cc1 | -38.4
Cc1ccccc1-c1ccc([C@H]2[C@H]3CN(C(=O)c4cccnc4)CCCCN3[C@H]2CO)cc1 | -41.54
CCCNC(=O)N1CC2(CN(Cc3cccc(OC)c3)C2)c2c([nH]c3cc(OC)ccc23)[C@@H]1CO | -37.89
C[C@@H]1CN([C@@H](C)CO)S(=O)(=O)c2ccc(C#CCN(C)C)cc2O[C@H]1CN(C)Cc1ccc2c(c1)OCO2 | -34.34
COc1ccc(-c2ccc3c(c2)[C@@H]2[C@@H](CCN2S(=O)(=O)c2ccc(F)cc2)[C@H](CO)N3C)cc1 | -35.12
C[C@H](CO)N1C[C@H](C)[C@H](CN(C)Cc2ccc(-c3ccccc3)cc2)Oc2ccc(NS(C)(=O)=O)cc2C1=O | -34.66
Cc1ccccc1-c1ccc([C@@H]2[C@@H](CO)N3CCCCN(C(=O)Nc4ccccc4)C[C@@H]23)cc1 | -40.1
C[C@@H]1CN([C@H](C)CO)C(=O)c2cccc(NC(=O)C3CCCCC3)c2O[C@H]1CN(C)Cc1ccc(C(F)(F)F)cc1 | -46.86
C[C@@H]1CN([C@@H](C)CO)C(=O)c2cc(C#Cc3ccc(F)cc3)cnc2O[C@@H]1CN(C)C(=O)c1ccccc1F | -51.92
Cc1ccc(S(=O)(=O)N(C)C[C@@H]2OCCCC[C@H](C)Oc3ccc(NS(=O)(=O)c4ccccc4)cc3C(=O)N([C@H](C)CO)C[C@@H]2C)cc1 | -27.51
O=C(C[C@@H]1CC[C@H](NC(=O)CCN2CCCCC2)[C@H](CO)O1)Nc1ccc(-c2ccccc2)cc1 | -16.02
C[C@@H]1CN([C@@H](C)CO)C(=O)c2cccc(NC(=O)NC3CCCCC3)c2O[C@H]1CN(C)Cc1ccc(Cl)c(Cl)c1 | -38
C[C@@H]1CN([C@H](C)CO)S(=O)(=O)c2ccc(C#Cc3ccccc3)cc2O[C@@H]1CN(C)S(C)(=O)=O | -35.37
C[C@@H]1CN([C@@H](C)CO)S(=O)(=O)c2ccc(C#CC3CCCCC3)cc2O[C@@H]1CN(C)Cc1cccnc1 | -71.65
C[C@@H]1CN([C@@H](C)CO)C(=O)c2c(c3ccccc3n2C)-c2ccccc2CO[C@@H]1CN(C)C(=O)c1ccc(F)cc1 | -23.94
O=C(Nc1ccccc1F)N1CC(=O)N2[C@H](CO)[C@H](c3ccc(C#Cc4ccc(F)cc4)cc3)[C@@H]2C1 | -36.61
C[C@@H]1CN([C@@H](C)CO)C(=O)c2cc(C#CCC3CCCC3)cnc2O[C@@H]1CN(C)S(=O)(=O)c1cccs1 | -25.68
O=C(C1CCCCC1)N1CC(=O)N2[C@H](CO)[C@@H](c3ccc(-c4ccccc4F)cc3)[C@H]2C1 | -21.76
O=S(=O)(c1cccs1)N1CCCCN2[C@H](CO)[C@H](c3ccc(/C=C/c4ccccc4)cc3)[C@@H]2C1 | -34.71
O=C(Nc1cccc(F)c1)N1C[C@@H]2N[C@H](C1)C2c1ccc(-c2ccccc2F)cc1 (stereo partly drawn) | -85.52
COc1cccc(C(=O)Nc2ccc3c(c2)OC[C@@H](C)N(CCc2ccccc2)C[C@H](C)[C@H](OC)CN(C)C3=O)c1 | -29.12
C[C@H](CO)N1C[C@H](C)[C@@H](CN(C)C)OCCCC[C@H](C)Oc2ccc(NC(=O)Nc3ccc(C(F)(F)F)cc3)cc2C1=O | -22.52
C[C@H]1CN([C@@H](C)CO)C(=O)c2cccc(NC(=O)NC3CCCCC3)c2O[C@@H]1CN(C)Cc1ccc(C(F)(F)F)cc1 | -37.15
O=C(NC1CCCCC1)N1CC(=O)N2[C@H](C1)[C@H](c1ccc(-c3cccc(F)c3)cc1)[C@@H]2CO | -56.72
Cc1ccc(S(=O)(=O)N(C)C[C@@H]2Oc3c(NC(=O)Nc4ccc5c(c4)OCO5)cccc3C(=O)N([C@@H](C)CO)C[C@@H]2C)cc1 | -59.86
O=S(=O)(c1ccccc1)N1[C@@H]2CNC[C@H]1C2c1ccc(-c2cccnc2)cc1 (stereo partly drawn) | -35.63
COc1ccc(CN(C)C[C@H]2Oc3c(NC(=O)c4nc5ccccc5s4)cccc3C(=O)N([C@@H](C)CO)C[C@@H]2C)cc1 | -36.81
C[C@@H]1CN([C@H](C)CO)C(=O)c2cc(NC(=O)Nc3cccc4ccccc34)ccc2O[C@@H](C)CCCCO[C@H]1CN(C)Cc1ccccc1 | -26.09
COc1cccc(C#Cc2ccc([C@@H]3[C@H](CO)N4C(=O)CN(C(=O)c5ccccc5)C[C@@H]34)cc2)c1 | -55.07

Some entries from above, unchanged:

* O=C(Nc1ccccc1F)N1CC(=O)N2[C@H](CO)[C@H](c3ccc(C#Cc4ccc(F)cc4)cc3)[C@@H]2C1 | activity change (Venus) -36.61%
* C[C@@H]1CN([C@@H](C)CO)S(=O)(=O)c2ccc(C#CC3CCCCC3)cc2O[C@@H]1CN(C)Cc1cccnc1 | activity change (Venus) -71.65%
* O=C(Nc1cccc(F)c1)N1C[C@@H]2N[C@H](C1)C2c1ccc(-c2ccccc2F)cc1 (stereo partly drawn) | activity change (Venus) -85.52%